This data set is described as follows: Summary comparison with lidocaine: side effects. To be noted: summary table.

The values that follow come from patent US4146628A, “Antiarrhythmic quinuclidine carboxylic acid xylidide and method of producing the same and similar compounds” (priority 1977, dated 1979).

SMILES strings stand for the structures.

`CCN(CC)CC(=O)Nc1c(C)cccc1C` [Lidocaine]: the “Side effects: CNS-effects” value is listed as “extensive”.
